Results reported in doi:10.1101/2023.09.14.557850.
These are yes or no findings as the source states them, for the method shown. In cells and extracts the contact can be indirect. Some binding calls cover weakened binding; strength is not graded here.

The chains behind the UniProt entries cited, without tags or fusion partners. Where a name states a change or a piece, a line headed by the entry shows the natural chain unless it says otherwise.
UniProt P14618: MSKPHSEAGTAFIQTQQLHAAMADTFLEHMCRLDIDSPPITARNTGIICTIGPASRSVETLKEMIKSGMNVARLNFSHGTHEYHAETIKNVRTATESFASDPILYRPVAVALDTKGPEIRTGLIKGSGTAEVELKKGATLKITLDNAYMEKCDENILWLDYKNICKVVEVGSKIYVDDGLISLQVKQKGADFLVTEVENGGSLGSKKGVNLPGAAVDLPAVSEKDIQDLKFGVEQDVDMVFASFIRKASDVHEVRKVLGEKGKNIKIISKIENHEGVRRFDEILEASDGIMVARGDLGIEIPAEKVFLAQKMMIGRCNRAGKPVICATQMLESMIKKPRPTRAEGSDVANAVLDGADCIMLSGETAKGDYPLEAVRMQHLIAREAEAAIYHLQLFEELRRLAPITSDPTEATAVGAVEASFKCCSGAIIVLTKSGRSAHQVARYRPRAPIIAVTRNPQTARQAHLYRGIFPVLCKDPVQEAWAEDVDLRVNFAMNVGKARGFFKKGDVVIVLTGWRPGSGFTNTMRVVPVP
UniProt P52294: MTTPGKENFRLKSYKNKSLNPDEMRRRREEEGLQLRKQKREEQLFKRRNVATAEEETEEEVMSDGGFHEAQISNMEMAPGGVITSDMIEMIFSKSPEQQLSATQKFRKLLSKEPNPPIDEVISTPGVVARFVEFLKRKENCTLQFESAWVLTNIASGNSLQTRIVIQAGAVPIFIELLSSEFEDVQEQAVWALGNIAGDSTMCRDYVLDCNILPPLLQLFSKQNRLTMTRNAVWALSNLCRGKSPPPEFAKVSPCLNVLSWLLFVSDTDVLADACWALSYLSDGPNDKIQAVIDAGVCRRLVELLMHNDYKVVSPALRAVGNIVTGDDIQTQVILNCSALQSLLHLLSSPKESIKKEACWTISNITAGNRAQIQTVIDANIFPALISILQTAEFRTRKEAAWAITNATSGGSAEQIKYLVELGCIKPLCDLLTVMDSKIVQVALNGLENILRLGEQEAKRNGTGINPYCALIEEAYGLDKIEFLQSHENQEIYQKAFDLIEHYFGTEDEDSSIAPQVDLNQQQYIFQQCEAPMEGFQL

Tests used:
Flag-PKM2-S333A [1] = target: Flag-PKM2-S333A (UniProt P14618); test: co-IP
Flag-PKM2-WT = Flag-PKM2-WT (UniProt P14618); test: co-IP
Flag-PKM2-S333A [2] = target: Flag-PKM2-S333A (UniProt P14618); test: cross-linking

| Substance | binding (Flag-PKM2-S333A [1]) | binding (Flag-PKM2-WT) | binding (Flag-PKM2-S333A [2]) |
| --- | --- | --- | --- |
| importin α5 (from UniProt P52294 1-538) | binds | binds |  |
| Flag-PKM2-S333A (from UniProt P14618 1-531) (enzyme) |  |  | binds |
